Source: article PMC5386651
These are yes or no findings as the source states them, for the method shown. In cells and extracts the contact can be indirect. Some binding calls cover weakened binding; strength is not graded here.

Chains of the proteins cited; added tags and fusions are not shown. Residues count along the entry.
UniProt O94925, residues 55-669: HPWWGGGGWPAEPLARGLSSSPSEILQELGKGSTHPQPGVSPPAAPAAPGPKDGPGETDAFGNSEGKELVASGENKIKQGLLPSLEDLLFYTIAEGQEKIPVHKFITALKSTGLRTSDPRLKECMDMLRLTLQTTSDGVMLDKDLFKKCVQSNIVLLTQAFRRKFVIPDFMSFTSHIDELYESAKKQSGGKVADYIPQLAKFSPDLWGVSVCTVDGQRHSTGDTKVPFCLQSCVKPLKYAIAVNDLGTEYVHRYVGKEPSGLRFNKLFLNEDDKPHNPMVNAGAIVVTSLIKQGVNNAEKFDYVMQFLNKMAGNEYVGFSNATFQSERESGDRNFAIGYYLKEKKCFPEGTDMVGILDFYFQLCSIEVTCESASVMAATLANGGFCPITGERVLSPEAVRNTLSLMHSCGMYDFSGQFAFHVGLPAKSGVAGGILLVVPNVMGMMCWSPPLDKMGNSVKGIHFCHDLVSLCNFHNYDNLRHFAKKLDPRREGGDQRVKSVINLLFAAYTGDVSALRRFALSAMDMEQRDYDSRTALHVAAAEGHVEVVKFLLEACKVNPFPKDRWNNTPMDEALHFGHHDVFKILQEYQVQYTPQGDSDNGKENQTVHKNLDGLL
UniProt Q9UM11: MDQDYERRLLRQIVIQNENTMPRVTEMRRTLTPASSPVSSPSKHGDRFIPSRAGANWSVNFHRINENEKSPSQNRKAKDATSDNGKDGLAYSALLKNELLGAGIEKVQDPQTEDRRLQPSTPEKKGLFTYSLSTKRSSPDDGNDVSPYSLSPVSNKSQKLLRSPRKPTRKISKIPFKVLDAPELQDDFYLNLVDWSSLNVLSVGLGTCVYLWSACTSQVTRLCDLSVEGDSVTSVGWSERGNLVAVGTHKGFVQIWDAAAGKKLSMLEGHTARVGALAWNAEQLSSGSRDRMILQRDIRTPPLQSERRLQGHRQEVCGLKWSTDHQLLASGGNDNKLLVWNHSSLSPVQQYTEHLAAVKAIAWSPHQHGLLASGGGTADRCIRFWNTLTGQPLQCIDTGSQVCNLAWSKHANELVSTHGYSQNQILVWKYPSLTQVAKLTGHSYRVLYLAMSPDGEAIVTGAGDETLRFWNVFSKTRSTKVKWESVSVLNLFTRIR

Molecular target: GLS1 (glutaminase) (human (endogenous in HCT116 and HT29)) (UniProt O94925)
Assay: co-IP; lysates (RIPA, 200 ug protein) of cells transfected with HA-CDH1 and treated with 10 umol/l selenite for 24 h or control; precipitated with GLS1 antibody, protein A + G agarose beads; blotted for HA

HA-CDH1 (from UniProt Q9UM11 1-496)
binding: binds
